For at least one compound, name, drawing or mass did not settle the structure. Some of these results come from one statement about several compounds together.
How the values were obtained:
[1] = lambda max (Vis) of activated form in test square polymerizates (Varian Cary 3 UV-Visible spectrophotometer); assay type: physicochemical; details: for activated color: activated with UV, test squares
Procedure: (§1) Testing was done with the photochromic compounds prepared in Examples 1, 2, 3 and 4 in the following manner. A quantity of each photochromic compound calculated to yield a 1.5×10^-3 molal solution was added to a flask containing 50 grams of a monomer blend of 4 parts ethoxylated bisphenol A dimethacrylate (BPA 2EO DMA), 1 part poly(ethylene glycol) 600 dimethacrylate, and 0.033 weight percent 2,2'-azobis(2-methyl propionitrile) (AIBN). Each photochromic compound was dissolved into the monomer blend by stirring and gentle heating. After a clear solution was obtained, it was poured into a flat sheet mold having the interior dimensions of 2.2 mm×6 inches (15.24 cm)×6 inches (15.24 cm). The mold was sealed and placed in a horizontal air flow, programmable oven programmed to increase the temperature from 40° C. to 95° C. over a 5 hour interval, hold the temperature at 95° C. for 3 hours, lower it to 60° C. over a 2 hour interval and then hold at 60° C. for 16 hours. After the mold was opened, the polymer sheet was cut using a diamond blade saw into 2 inch (5.1 centimeters) test squares.
The Δ OD/Min, which represents the sensitivity of the photochromic compound's response to UV light, was measured over the first five (5) seconds of UV exposure, then expressed on a per minute basis. The saturation optical density (Δ OD@ Saturation) was taken under identical conditions as the Δ OD/Min, except UV exposure was continued for 15 minutes. The lambda max (Vis) is the wavelength in nanometers (nm) in the visible spectrum at which the maximum absorption of the activated (colored) form of the photochromic compound in a test square occurs. The lambda max (Vis) wavelength was determined by testing the photochromic test square polymerizates of Part A in a Varian Cary 3 UV-Visible spectrophotometer. The Bleach Rate (T 1/2) is the time interval in seconds for the absorbance of the activated form of the photochromic compound in the test squares to reach one half the highest absorbance at room temperature (72° F., 22.2° C.) after removal of the source of activating light.

[2] = Photochromic response of test squares on an optical bench; assay type: physicochemical
Procedure: as §1
The photochromic test squares prepared in Part A were tested for photochromic response on an optical bench. […] The UV-A detector was placed into the sample holder and the light output was measured. […]
A monitoring, collimated beam of light from a tungsten lamp was passed through the square at a small angle (approximately 30° ) normal to the square. After passing through the square, the light from the tungsten lamp was directed to a detector through Spectral Energy Corp. GM-200 monochromator set at the previously determined visible lambda max of the photochromic compound being measured. […]
The Δ OD/Min, which represents the sensitivity of the photochromic compound's response to UV light, was measured over the first five (5) seconds of UV exposure, then expressed on a per minute basis. […]

Structure (SMILES) | activated color [1] | ΔOD @ Saturation ([2]; UV exposure continued for 15 minutes, 72° F. (22.2° C.)) | Sensitivity ΔOD/min ([2]; first five (5) seconds of UV exposure, expressed per minute, 72° F. (22.2° C.), 0.15 to 0.20 mW/cm^2) | Bleach Rate T 1/2 ([2]; time to one half the highest absorbance at room temperature (72° F., 22.2° C.) after removal of activating light) [s] | lambda max (Vis) ([1]; activated (colored) form in test square, BPA 2EO DMA / poly(ethylene glycol) 600 dimethacrylate polymer) [nanometers]
Cc1ccc2c3c(c4c(c2c1)C=C(C(c1ccccc1)c1ccccc1)OC4)C=CC(c1ccccc1)(c1ccc(N2CCOCC2)cc1)O3 (centres unmarked) [Example 4, 2-phenyl-2-(4-morpholinophenyl)-7-diphenylmethyl-10-methyl-2,5-dihydro-pyrano[3',4':3,4]naphtho[1,2-b]pyran] | from orange at 492 nm to blue at 592 nm |  |  |  | 
COc1ccc(C2(c3ccc(OC)cc3)C=Cc3c4c(c5cc(C)ccc5c3O2)C=C(C(c2ccccc2)c2ccccc2)OC4)cc1 [Example 3, 2,2-di(4-methoxyphenyl)-7-diphenylmethyl-10-methyl-2,5-dihydro-pyrano[3',4':3,4]naphtho[1,2-b]pyran] | from orange at 492 nm to blue at 592 nm |  |  |  | 
COc1ccc(C2(c3ccc(OC)cc3)C=Cc3c(c4ccc(C)cc4c4cc(C(c5ccccc5)c5ccccc5)oc(=O)c34)O2)cc1 [Example 2, 2,2-di(4-methoxyphenyl)-7-diphenylmethyl-10-methyl-2,5-dihydro-5-oxo-pyrano[3',4':3,4]naphtho[1,2-b]pyran] | from orange at 492 nm to blue at 592 nm | 0.15 | 0.48 ΔOD/min | 17 | 521
Cc1ccc2c3c(c4c(=O)oc(C(c5ccccc5)c5ccccc5)cc4c2c1)C=CC(c1ccccc1)(c1ccccc1)O3 [Example 1, 2,2-diphenyl-7-diphenylmethyl-10-methyl-2,5-dihydro-5-oxo-pyrano[3',4':3,4]naphtho[1,2-b]pyran] | from orange at 492 nm to blue at 592 nm |  |  |  | 

Reference: patent US6106744A, “Photochromic pyrano-fused naphthopyrans” (PPG Industries Ohio, Inc., priority 1997, dated 2000)
